Assay results: US20130115671A1, “ENZYMES FROM CONIDIOBOLUS BREFELDIANUS AND PROCESS FOR PREPARATION THEREOF” (Council of Scientific and Industrial Research, priority 2010, published 2013)
Some of these results come from one statement about several compounds together. For at least one compound, name, drawing or mass did not settle the structure.

System: protease from Conidiobolus brefeldianus MTCC 5185
Experiment: Stability of protease in presence of organic solvents at 37° C.
Assay type: physicochemical
Settings: 20% (v/v) solvent, pH 7, 120 min
Protocol: This example illustrates the effect of water miscible as well as water immiscible organic solvents on stability of crude protease at 37° C. […] Samples were removed at different time intervals and residual activity was estimated. Sample without organic solvent served as control.

| Structure (SMILES) | Residual Activity (%) of protease, 120 min (listed as dimethylsulphoxide) | Residual Activity (%) of protease, 120 min (listed as isopropanol) |
| --- | --- | --- |
| C[S+](C)[O-] [DMSO, dimethylsulphoxide] | more than 50% |  |
| CC(C)O [Isopropanol, isopropanol] |  | less than 35% |
